# In patent US5631007A, “Anti-pathogenically effective compositions comprising lytic peptides and hydrolytic enzymes” (Ciba-Geigy Corporation, priority 1994, dated 1997):
# At least one peptide structure holds a part that was inferred or is arguable (an end, a ring closure or a residue). Where no end group is shown, it is not given here.
# System: S. nodorum
# Assay: Inhibitory effect of lytic peptides and hydrolytic enzymes against S. nodorum, microtiter plates, liquid pea medium, absorbance at 595 nm
# Format: cell-based
sequence,measurement,setting,value
GIGKFLHSAKKFGKAFVGIMNS [Synthetic Peptide No. 3],Fungal growth in percentage of control,test solution 5: lytic peptide 20 ppm alone,80.35 percentage of control
same,Fungal growth in percentage of control,test solution 6: lytic peptide 60 ppm alone,73.51 percentage of control
same,Fungal growth in percentage of control,test solution 7: lytic peptide 200 ppm alone,65.96 percentage of control
same,Fungal growth in percentage of control,test solution 12: lytic peptide 20 ppm + purified chitinase 1/10 c,68.42 percentage of control
same,Fungal growth in percentage of control,test solution 13: lytic peptide 60 ppm + purified chitinase 1/10 c,63.51 percentage of control
same,Fungal growth in percentage of control,test solution 14: lytic peptide 200 ppm + purified chitinase 1/10 c,61.75 percentage of control
same,Fungal growth in percentage of control,test solution 15: lytic peptide 20 ppm + purified chitinase 1/100 c,77.89 percentage of control
same,Fungal growth in percentage of control,test solution 16: lytic peptide 60 ppm + purified chitinase 1/100 c,71.58 percentage of control
same,Fungal growth in percentage of control,test solution 17: lytic peptide 200 ppm + purified chitinase 1/100 c,64.21 percentage of control
